# These are yes or no findings as the source states them, for the method shown. Some results given as binding are weak or reduced against the parent protein; the word gives no strength.
# The chains behind the UniProt entries cited, without tags or fusion partners. Residues count along the entry.
# UniProt P55774, residues 21-89: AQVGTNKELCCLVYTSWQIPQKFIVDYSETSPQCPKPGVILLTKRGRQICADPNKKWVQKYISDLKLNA
# UniProt P0C8E7, residues 21-114: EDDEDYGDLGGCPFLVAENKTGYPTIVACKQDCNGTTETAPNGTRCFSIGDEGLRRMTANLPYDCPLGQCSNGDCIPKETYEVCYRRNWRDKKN
# Target: CC chemokine ligand 18 (CCL18) (human) (UniProt P55774)
# Test: far-Western, overlay or dot blot; Dot-Blot of CCL18 with Evasin-1, -3 and -4; data not shown; format not told; both purified
substance,measurement,value
Evasin-1 (from UniProt P0C8E7 21-114),binding,binds

# From paper PMC3711072
